From PubChem BioAssay AID256 (DTP/NCI, 2004)
The list does not hold the whole screen: it gathers tests that were run many times, whatever their T/C, doses with no T/C, and many T/C values between a quarter and a half above the control. Other doses and runs of a compound stand elsewhere. T/C: endpoint of the treated group in % of that of the vehicle group. Some doses have a count of surviving animals in place of a T/C: the source files T/C as zero there, which appears to mark a toxic dose or a test without result, not a measured value. Some survivor counts are full or nearly so, which does not show that the dose was tolerated: survival well below the control is almost never listed, so the zero probably covers shortened survival too. Survivors were counted at the toxicity check, usually on the fifth day, unless a day is given; later deaths do not show. Schedule codes are those of the source, taken here to give the interval after Q, in days (D) or hours (H), and the number of doses after X. Where survival is the endpoint, this PubChem deposit counts one and a half times the control or more as active, and values a quarter to a half above the control carry no call in these data; other NCI protocols may use other cut-offs. Some entries hold several experiments; the results are listed from low to high. Some T/C values carry the count of animals alive at the toxicity check (mostly the fifth day); without a count, all were alive then.

Tested on: CD2F1 mice, L1210 leukemia ip, survival T/C
Experiment: NCI In Vivo Anticancer Drug Screen. Data for tumor model L1210 Leukemia (intraperitoneal) in CD2F1 (CDF1) mice
Details: higher T/C = longer survival
How it was run: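 Each value reflects a quotient of treated over vehicle control outcomes in mice with a transplanted tumor.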

[1] = T/C endpoint: mean survival time, dose: 100.0 mg/kg/injection, schedule: Q04DX003 (ip), vehicle: saline with Tween-80
[2] = T/C endpoint: mean survival time, dose: 200.0 mg/kg/injection, schedule: Q04DX003 (ip), vehicle: saline with Tween-80
[3] = T/C endpoint: mean survival time, dose: 400.0 mg/kg/injection, schedule: Q04DX003 (ip), vehicle: saline with Tween-80
[4] = T/C endpoint: mean survival time, dose: 400.0 mg/kg/injection, schedule: Q04DX002 (ip), vehicle: saline with Tween-80
[5] = T/C endpoint: mean survival time, dose: 400.0 mg/kg/injection, schedule: Q01DX009 (ip), vehicle: saline with Tween-80
[6] = T/C endpoint: mean survival time, dose: 300.0 mg/kg/injection, schedule: Q01DX001 (ip), vehicle: saline
[7] = T/C endpoint: mean survival time, dose: 100.0 mg/kg/injection, schedule: Q01DX001 (ip), vehicle: saline with Tween-80
[8] = T/C endpoint: mean survival time, dose: 400.0 mg/kg/injection, schedule: Q01DX001 (ip), vehicle: saline with Tween-80
[9] = T/C endpoint: mean survival time, dose: 12.5 mg/kg/injection, schedule: Q04DX003 (ip), vehicle: saline with Tween-80
[10] = T/C endpoint: mean survival time, dose: 200.0 mg/kg/injection, schedule: Q01DX009 (ip), vehicle: saline
[11] = T/C endpoint: median survival time, dose: 50.0 mg/kg/injection, schedule: Q01DX005 (ip), vehicle: saline
[12] = T/C endpoint: mean survival time, dose: 200.0 mg/kg/injection, schedule: Q01DX009 (ip), vehicle: saline with Tween-80

N#CC(Nc1ccccc1)C1CC1c1ccccc1 (configuration not stated)
survivor count [1]: 6 of 6
survivor count [2]: 6 of 6
survivor count [3]: 2 of 6

Clc1c(Cl)c(Cl)[c]([Hg][c]2c(Cl)c(Cl)c(Cl)c(Cl)c2Cl)c(Cl)c1Cl
survivor count [2]: 2 of 6
survivor count [3]: 0 of 6

C1CC2(CCC13CS3)CS2 (configuration not stated)
survivor count [4]: 0 of 3

O=C(O)c1ccc(CBr)c(CBr)c1
survivor count [1]: 0 of 6
survivor count [2]: 0 of 6
survivor count [3]: 0 of 6

CC1(C)N=C(N)N=C(N)N1c1ccc(Cl)c(C(F)(F)F)c1
survivor count [1]: 2 of 6

CCCCCC(C)(C#N)CCCCC
survivor count [5]: 6 of 6

N#CSCc1ccc(Cl)c(CSC#N)c1
survivor count (T/C endpoint: mean survival time, dose: 150.0 mg/kg/injection, schedule: Q01DX001 (ip), vehicle: saline): 2 of 6
survivor count [6]: 1 of 6

CN1Cc2c([nH]c3ccccc23)C(O)C1 (configuration not stated)
survivor count [6]: 3 of 6

Cc1csc2nc(-c3ccccc3)[nH]c(=S)c12
survivor count [2]: 6 of 6

COc1ccc2nc3c(Cl)cccc3c(Cl)c2c1
survivor count [7]: 6 of 6
survivor count [8]: 6 of 6

CC([NH-])CC[NH-].O=[N+]([O-])O.O=[N+]([O-])O.[Pt+2] (configuration not stated)
T/C (T/C endpoint: mean survival time, dose: 3.12 mg/kg/injection, schedule: Q04DX003 (ip), vehicle: saline with Tween-80): 132 % of control
T/C [9]: 148 % of control

CC(=O)C(C[CH2][Hg][Cl])C(C)=O
survivor count (T/C endpoint: mean survival time, dose: 150.0 mg/kg/injection, schedule: Q01DX001 (ip), vehicle: other): 1 of 6
survivor count (T/C endpoint: mean survival time, dose: 300.0 mg/kg/injection, schedule: Q01DX001 (ip), vehicle: other): 0 of 6

CN(C)CCCNCC#CCNCCCN(C)C
survivor count (T/C endpoint: mean survival time, dose: 400.0 mg/kg/injection, schedule: Q04DX003 (ip), vehicle: saline): 3 of 6

CN=NC1(OC(C)=O)CCCC1
survivor count (T/C endpoint: mean survival time, dose: 50.0 mg/kg/injection, schedule: Q01DX009 (ip), vehicle: saline): 1 of 3
survivor count (T/C endpoint: mean survival time, dose: 100.0 mg/kg/injection, schedule: Q01DX009 (ip), vehicle: saline): 0 of 3
survivor count [10]: 0 of 3
survivor count (T/C endpoint: mean survival time, dose: 400.0 mg/kg/injection, schedule: Q01DX009 (ip), vehicle: saline): 0 of 3

NC(=O)CCc1ccnc2ccccc12
survivor count [4]: 1 of 3

Cc1cn(C2CC(OP(=O)(O)OCC3OC(n4ccc(N)nc4=O)C(O)C3O)C(CO)O2)c(=O)[nH]c1=O (configuration not stated)
T/C (T/C endpoint: median survival time, dose: 20.0 mg/kg/injection, schedule: Q01DX005 (ip), vehicle: saline): 128 % of control
T/C (T/C endpoint: median survival time, dose: 40.0 mg/kg/injection, schedule: Q01DX005 (ip), vehicle: saline): 140 % of control
T/C [11]: 135 % of control
T/C (T/C endpoint: median survival time, dose: 100.0 mg/kg/injection, schedule: Q01DX005 (ip), vehicle: saline): 141 % of control
T/C (T/C endpoint: median survival time, dose: 200.0 mg/kg/injection, schedule: Q01DX005 (ip), vehicle: saline): 149 % of control

OC1CC2CC1C1C3C=CC(C3)C21 (configuration not stated)
survivor count (T/C endpoint: mean survival time, dose: 50.0 mg/kg/injection, schedule: Q01DX009 (ip), vehicle: saline with Tween-80): 2 of 3
survivor count (T/C endpoint: mean survival time, dose: 100.0 mg/kg/injection, schedule: Q01DX009 (ip), vehicle: saline with Tween-80): 0 of 3
survivor count [12]: 0 of 3

C=C(C)[C@]12CC(C)C34OC(/C=C\C=C\CCCCCCCCC)(O[C@@H]1[C@@H]3[C@@H]1O[C@]1(CO)[C@@H](O)[C@]1(O)C(=O)C(C)=C[C@@H]41)O2 (some centres not stated)
survivor count (T/C endpoint: mean survival time, dose: 3.0 mg/kg/injection, schedule: Q01DX009 (ip), vehicle: alcohol): 0 of 6

O=C(O)c1ccc(Cl)cc1Nc1ccc(Cl)cc1
survivor count [2]: 2 of 6
survivor count [3]: 0 of 6

Cc1nc(N)[nH]c(=O)c1NC(=O)c1ccc(N=[N+]=[N-])cc1
survivor count [7]: 6 of 6
survivor count (T/C endpoint: mean survival time, dose: 200.0 mg/kg/injection, schedule: Q01DX001 (ip), vehicle: saline with Tween-80): 6 of 6
survivor count [8]: 6 of 6

F[Si](c1ccc(Br)cc1)(c1ccc(Br)cc1)c1ccc(Br)cc1
survivor count [12]: 3 of 6
survivor count [3]: 2 of 6

Cc1ccc(NC(=O)CCl)cc1C
survivor count [5]: 3 of 6

CC(O)C(=O)Oc1ccccc1 (configuration not stated)
survivor count (T/C endpoint: mean survival time, dose: 400.0 mg/kg/injection, schedule: Q01DX009 (ip), vehicle: other): 0 of 6
survivor count (T/C endpoint: mean survival time, dose: 800.0 mg/kg/injection, schedule: Q01DX001 (ip), vehicle: other): 0 of 6
survivor count (T/C endpoint: mean survival time, dose: 1600.0 mg/kg/injection, schedule: Q01DX001 (ip), vehicle: other): 0 of 6

Nc1nc(N)nc(N)n1
survivor count (T/C endpoint: mean survival time, dose: 1600.0 mg/kg/injection, schedule: Q01DX009 (ip), vehicle: saline with Tween-80): 6 of 10

COc1cc2c(c(OC)c1O)-c1ccc(OC)c(=O)cc1[C@@H](NC(=O)C(F)(F)F)CC2
T/C (T/C endpoint: median survival time, dose: 1.25 mg/kg/injection, schedule: Q01DX005 (ip), vehicle: Klucel (hydroxypropylcellulose) (HPC)): 137 % of control
T/C (T/C endpoint: median survival time, dose: 1.8 mg/kg/injection, schedule: Q01DX005 (ip), vehicle: Klucel (hydroxypropylcellulose) (HPC)): 147 % of control
T/C (T/C endpoint: median survival time, dose: 2.5 mg/kg/injection, schedule: Q01DX009 (ip), vehicle: Klucel (hydroxypropylcellulose) (HPC)): 131 % of control
T/C (T/C endpoint: median survival time, dose: 5.0 mg/kg/injection, schedule: Q01DX005 (ip), vehicle: Klucel (hydroxypropylcellulose) (HPC)): 135 % of control
T/C (T/C endpoint: median survival time, dose: 5.0 mg/kg/injection, schedule: Q01DX009 (ip), vehicle: Klucel (hydroxypropylcellulose) (HPC)): 131 % of control
survivor count (T/C endpoint: median survival time, dose: 10.0 mg/kg/injection, schedule: Q01DX009 (ip), vehicle: Klucel (hydroxypropylcellulose) (HPC)): 4 of 6
survivor count (T/C endpoint: median survival time, dose: 20.0 mg/kg/injection, schedule: Q01DX005 (ip), vehicle: Klucel (hydroxypropylcellulose) (HPC)): 3 of 6

COc1ccc([N+](=O)[O-])cc1C[S+](C)C
survivor count (T/C endpoint: mean survival time, dose: 50.0 mg/kg/injection, schedule: Q01DX009 (ip), vehicle: Klucel (hydroxypropylcellulose) (HPC)): 1 of 3
survivor count (T/C endpoint: mean survival time, dose: 100.0 mg/kg/injection, schedule: Q01DX009 (ip), vehicle: Klucel (hydroxypropylcellulose) (HPC)): 0 of 3
survivor count (T/C endpoint: mean survival time, dose: 200.0 mg/kg/injection, schedule: Q01DX009 (ip), vehicle: Klucel (hydroxypropylcellulose) (HPC)): 0 of 3

O=NNc1cccc(NN=O)n1
T/C (T/C endpoint: median survival time, dose: 12.5 mg/kg/injection, schedule: Q01DX005 (ip), vehicle: saline): 137 % of control
T/C (T/C endpoint: median survival time, dose: 19.0 mg/kg/injection, schedule: Q01DX005 (ip), vehicle: saline): 141 % of control [5 of 6 alive]
T/C (T/C endpoint: median survival time, dose: 25.0 mg/kg/injection, schedule: Q01DX005 (ip), vehicle: saline): 127 and 138 % of control
T/C [11]: 141 and 142 % of control
T/C (T/C endpoint: median survival time, dose: 66.0 mg/kg/injection, schedule: Q01DX005 (ip), vehicle: saline): 141 % of control

[Cl][Pt+2][Cl].[NH-]C1CC1.[NH2-]
T/C (T/C endpoint: mean survival time, dose: 3.12 mg/kg/injection, schedule: Q04DX003 (ip), vehicle: saline): 132 and 147 % of control
survivor count (T/C endpoint: mean survival time, dose: 6.25 mg/kg/injection, schedule: Q04DX003 (ip), vehicle: saline with Tween-80): 3 of 6
T/C (T/C endpoint: mean survival time, dose: 6.25 mg/kg/injection, schedule: Q04DX003 (ip), vehicle: saline): 148 % of control
survivor count [9]: 4 of 6
survivor count (T/C endpoint: mean survival time, dose: 25.0 mg/kg/injection, schedule: Q04DX003 (ip), vehicle: saline with Tween-80): 2 of 6
survivor count (T/C endpoint: mean survival time, dose: 50.0 mg/kg/injection, schedule: Q04DX003 (ip), vehicle: saline with Tween-80): 2 of 6
survivor count [1]: 1 of 6
survivor count [2]: 1 of 6

N#CCC(=O)N/N=C/c1ccccc1
survivor count [5]: 0 of 3

N/C=N/O
T/C (T/C endpoint: mean survival time, dose: 150.0 mg/kg/injection, schedule: Q01DX009 (ip), vehicle: saline): 126 % of control
T/C [10]: 133 % of control
survivor count (T/C endpoint: mean survival time, dose: 600.0 mg/kg/injection, schedule: Q01DX009 (ip), vehicle: saline): 0 of 6

CCCCC(c1ccccc1)P(=O)(OCC)OCC (configuration not stated)
survivor count [12]: 3 of 6
survivor count [5]: 0 of 6
